Patent publication US7279548
These are yes or no findings as the source states them, for the method shown. Some binding calls cover weakened binding; strength is not graded here. Blank lines part the entries; values can stand above or below the binder they belong to.

Amino acid sequences for entries named in this document (tags omitted). Residues count along the entry.
UniProt P46935, residues 249-493: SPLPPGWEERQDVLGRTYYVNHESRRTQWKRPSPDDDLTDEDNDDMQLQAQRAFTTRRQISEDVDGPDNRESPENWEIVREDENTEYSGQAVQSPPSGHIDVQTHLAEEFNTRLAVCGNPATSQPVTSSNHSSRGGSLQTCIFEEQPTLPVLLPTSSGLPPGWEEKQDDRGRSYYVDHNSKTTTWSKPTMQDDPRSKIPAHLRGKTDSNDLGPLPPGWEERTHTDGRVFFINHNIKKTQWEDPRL

Legend:
[1] = molecular target: WWP1.2 WW domain expressed as GST fusion protein (human); test: ELISA cross affinity mapping, GST-WW fusion
[2] = molecular target: WWP2.3 WW domain expressed as GST fusion protein (human); test: ELISA cross affinity mapping, GST-WW fusion
[3] = molecular target: WWP2.4 WW domain expressed as GST fusion protein (human); test: cross affinity mapping, GST-WW fusion
[4] = molecular target: WWP1.4 WW domain expressed as GST fusion protein (human); test: cross affinity mapping, GST-WW fusion
[5] = molecular target: WWP1.1 WW domain expressed as GST fusion protein (human); test: cross affinity mapping, GST-WW fusion
[6] = molecular target: WWP2.2 WW domain expressed as GST fusion protein (human); test: cross affinity mapping, GST-WW fusion
[7] = molecular target: WWP2.1 WW domain expressed as GST fusion protein (human); test: cross affinity mapping, GST-WW fusion
[8] = molecular target: WWP3 WW domain expressed as GST fusion protein (human); test: cross affinity mapping, GST-WW fusion
[9] = molecular target: mouse Nedd-4 (portions expressed by 5 cDNA clones) (mouse) (UniProt P46935); test: filter-lift screen of cDNA expression library with biotinylated peptide-SA-AP complex
[10] = molecular target: WWP3 WW domain expressed as GST fusion protein (human); test: ELISA cross affinity mapping, GST-WW fusion

B2: Peptide bWW059 (wild-type PPPPY-like motif of the HECT domain of WWP4) (peptide)
peptide: NRLDLPPYETFED
modifications: biotinylated
- binding [3]: binds
- binding [4]: binds
- binding [5]: binds
- binding [6]: binds
- binding [7]: binds

B3: ENaCγ peptide (biotin-…) (peptide)
peptide: PGTPPPKYNTLRL
modifications: N-terminal biotin
- binding [8]: binds

B4: ENaCβ peptide (biotin-…) (peptide)
peptide: PGTPPPNYDSLRL
modifications: N-terminal biotin
- binding [8]: binds

More lines, now with the values ahead:

- binding [1]: binds
- binding [2]: binds
B1: WBP-1-Pro2 (alanine substitution of the second proline of the PPPPY motif of WBP-1) (peptide)
peptide: SGSGPGTPAPPYTVGPGY
modifications: biotinylated

- binding [9]: binds
B5: QP peptide (biotin-…) (peptide)
peptide: YVQPPPPPYPGPM
modifications: N-terminal biotin

- binding [10]: binds
B6: WBP-2A-Pro3 (alanine substitution of the second proline of the PPPPY motif of WBP-2A) (peptide)
peptide: SGSGYVQPPAPPYPGPM
modifications: biotinylated
